According to the supplement of paper PMC4604168 (melanoma cell lines):
The other results are listed elsewhere or left out. Repeats are few or missing, and single values can be far off.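 Cells were imaged in 1,536-well plates, and nuclei stained with an antibody against cleaved PARP were counted against all DNA-stained nuclei to give the apoptosis fraction. Screening doses were chosen to leave most cells alive, and resting and induced cleaved-PARP levels differ strongly between cell lines.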

These compounds were tested on WM3526 (assay: cleaved PARP positive nuclei fraction relative to DMSO control; melanoma cells; higher = more apoptosis). Conditions: library dose: low library concentration; 72 h.

| SMILES | cleaved PARP positive nuclei fraction [%] |
| --- | --- |
| C[C@@H](N)c1ccc(C(=O)Nc2ccnc3[nH]ccc23)cc1 + COc1cc(N2CCC(N3CCN(C)CC3)CC2)ccc1Nc1ncc(Cl)c(Nc2ccccc2S(=O)(=O)C(C)C)n1 [NVP-TAE684] (first compound 0.4 µM, partner dose 0.08 µM) | 69.6 |
| CCN(CC)CCNC(=O)c1c(C)[nH]c(/C=C2\C(=O)Nc3ccc(F)cc32)c1C [sunitinib] + O=c1cc(-c2cccc3c2Sc2ccccc2S3)oc(N2CCOCC2)c1 [KU55933] (first compound 0.4 µM, partner dose 1 µM) | 52 |
| C[C@]1(O)C[C@@H](c2nc(-c3ccc4ccc(-c5ccccc5)nc4c3)c3c(N)nccn32)C1 + O=C(Nc1ccccc1)c1cc([N+](=O)[O-])ccc1Cl [GW9662] (first compound 0.4 µM, partner dose 2 µM) | 79.7 |
| CCCCCCCCc1ccc(CCC(N)(CO)CO)cc1 [fingolimod] + NCC(=O)Nc1ccc(-n2nc(C(F)(F)F)cc2-c2ccc3c(ccc4ccccc43)c2)cc1 [OSU03012] (first compound 2 µM, partner dose 1 µM) | 168 |
| CC1(C)CCC(c2ccc(Cl)cc2)=C(CN2CCN(c3ccc(C(=O)NS(=O)(=O)c4ccc(N[C@H](CCN5CCOCC5)CSc5ccccc5)c(S(=O)(=O)C(F)(F)F)c4)cc3)CC2)C1 + CO[C@@H]1[C@H](N(C)C(=O)c2ccccc2)C[C@H]2O[C@]1(C)n1c3ccccc3c3c4c(c5c6ccccc6n2c5c31)C(=O)NC4 [Midostaurin] (first compound 0.4 µM, partner dose 0.08 µM) | 67.4 |
| C[C@]1(O)C[C@@H](c2nc(-c3ccc4ccc(-c5ccccc5)nc4c3)c3c(N)nccn32)C1 + Cc1cc([N+](=O)[O-])ccc1NS(=O)(=O)c1cc(Cl)ccc1Cl [FH535] (first compound 0.4 µM, partner dose 1 µM) | 94.3 |

An excerpt of these results, bar-delimited:
SMILES | cleaved PARP positive nuclei fraction [%]
CCN(CC)CCNC(=O)c1c(C)[nH]c(/C=C2\C(=O)Nc3ccc(F)cc32)c1C [sunitinib] + O=c1cc(-c2cccc3c2Sc2ccccc2S3)oc(N2CCOCC2)c1 [KU55933] (first compound 0.4 µM, partner dose 1 µM) | 52
C[C@]1(O)C[C@@H](c2nc(-c3ccc4ccc(-c5ccccc5)nc4c3)c3c(N)nccn32)C1 + O=C(Nc1ccccc1)c1cc([N+](=O)[O-])ccc1Cl [GW9662] (first compound 0.4 µM, partner dose 2 µM) | 79.7

What follows are compounds tested on WM3619 in the same assay as above. Conditions: library dose: low library concentration; 72 h.

| SMILES | cleaved PARP positive nuclei fraction [%] |
| --- | --- |
| C[C@@H](N)c1ccc(C(=O)Nc2ccnc3[nH]ccc23)cc1 + Cc1cc([N+](=O)[O-])ccc1NS(=O)(=O)c1cc(Cl)ccc1Cl [FH535] (first compound 0.4 µM, partner dose 1 µM) | 82.9 |
| CS(=O)(=O)c1ccc(C(=O)Nc2ccc(Cl)c(-c3ccccn3)c2)c(Cl)c1 [vismodegib] + O=S(=O)(c1ccccc1)N(CC(F)(F)F)c1ccc(C(O)(C(F)(F)F)C(F)(F)F)cc1 [T0901317] (first compound 1 µM, partner dose 1.4 µM) | 105 |
| CCN(CC)CCNC(=O)c1c(C)[nH]c(/C=C2\C(=O)Nc3ccc(F)cc32)c1C [sunitinib] + COc1cc(N2CCC(N3CCN(C)CC3)CC2)ccc1Nc1ncc(Cl)c(Nc2ccccc2S(=O)(=O)C(C)C)n1 [NVP-TAE684] (first compound 0.4 µM, partner dose 0.08 µM) | 71 |
| CC1(C)CCC(c2ccc(Cl)cc2)=C(CN2CCN(c3ccc(C(=O)NS(=O)(=O)c4ccc(N[C@H](CCN5CCOCC5)CSc5ccccc5)c(S(=O)(=O)C(F)(F)F)c4)cc3)CC2)C1 + CC(C)CCN1c2nc(Nc3cc(F)c(O)c(F)c3)ncc2N(C)C(=O)C1C [BID1870] (first compound 0.4 µM, partner dose 0.2 µM) | 295 |
| C[C@@H](N)c1ccc(C(=O)Nc2ccnc3[nH]ccc23)cc1 + CN(NC(=O)CC(=O)NN(C)C(=S)c1ccccc1)C(=S)c1ccccc1 [STA4783] (first compound 0.4 µM, partner dose 0.006 µM) | 185 |
| NC1(c2ccc(-c3nc4ccn5c(=O)[nH]nc5c4cc3-c3ccccc3)cc2)CCC1 + COc1cc(N2CCC(N3CCN(C)CC3)CC2)ccc1Nc1ncc(Cl)c(Nc2ccccc2S(=O)(=O)C(C)C)n1 [NVP-TAE684] (first compound 0.4 µM, partner dose 0.08 µM) | 86.7 |
| NC(=O)c1ccc(N(C(N)=O)c2c(F)cccc2F)nc1-c1ccc(F)cc1F + CCCCCCCCCCCC1=C(O)C(=O)C=C(O)C1=O [Embelin] (first compound 0.4 µM, partner dose 1.2 µM) | 97.8 |
| CS(=O)(=O)c1ccc(C(=O)Nc2ccc(Cl)c(-c3ccccn3)c2)c(Cl)c1 [vismodegib] + NCC(=O)Nc1ccc(-n2nc(C(F)(F)F)cc2-c2ccc3c(ccc4ccccc43)c2)cc1 [OSU03012] (first compound 1 µM, partner dose 1 µM) | 102 |
| NC1(c2ccc(-c3nc4ccn5c(=O)[nH]nc5c4cc3-c3ccccc3)cc2)CCC1 + O=S(=O)(c1ccccc1)N(CC(F)(F)F)c1ccc(C(O)(C(F)(F)F)C(F)(F)F)cc1 [T0901317] (first compound 0.4 µM, partner dose 1.4 µM) | 107 |
| NC(=O)c1ccc(N(C(N)=O)c2c(F)cccc2F)nc1-c1ccc(F)cc1F + CC(C)(C)c1cnc(CSc2cnc(NC(=O)C3CCNCC3)s2)o1 [SNS-032] (first compound 0.4 µM, partner dose 0.01 µM) | 87.5 |
| NC(=O)c1ccc(N(C(N)=O)c2c(F)cccc2F)nc1-c1ccc(F)cc1F + CO[C@@H]1[C@H](N(C)C(=O)c2ccccc2)C[C@H]2O[C@]1(C)n1c3ccccc3c3c4c(c5c6ccccc6n2c5c31)C(=O)NC4 [Midostaurin] (first compound 0.4 µM, partner dose 0.08 µM) | 87.9 |
| Cn1cnc2c(F)c(Nc3ccc(Br)cc3Cl)c(C(=O)NOCCO)cc21 [selumetinib] + COc1cc2c(Oc3ccc4[nH]c(C)cc4c3F)ncnc2cc1OCCCN1CCCC1 [cediranib] (first compound 0.015 µM, partner dose 0.4 µM) | 97.6 |
| C[C@]1(O)C[C@@H](c2nc(-c3ccc4ccc(-c5ccccc5)nc4c3)c3c(N)nccn32)C1 + c1cc(-c2cnn3cc(-c4ccc(OCCN5CCCCC5)cc4)cnc23)ccn1 [Dorsomorphin] (first compound 0.4 µM, partner dose 0.4 µM) | 112 |
| CC1(C)CCC(c2ccc(Cl)cc2)=C(CN2CCN(c3ccc(C(=O)NS(=O)(=O)c4ccc(N[C@H](CCN5CCOCC5)CSc5ccccc5)c(S(=O)(=O)C(F)(F)F)c4)cc3)CC2)C1 + NCC(=O)Nc1ccc(-n2nc(C(F)(F)F)cc2-c2ccc3c(ccc4ccccc43)c2)cc1 [OSU03012] (first compound 0.4 µM, partner dose 1 µM) | 101 |
| CN(c1ncccc1CNc1nc(Nc2ccc3c(c2)CC(=O)N3)ncc1C(F)(F)F)S(C)(=O)=O + O=C(O)c1ccc(-c2c[nH]c3ncc(-c4ccccc4)cc23)cc1C1CCCC1 [GSK650394] (first compound 0.08 µM, partner dose 0.16 µM) | 89.4 |
| NC(=O)c1ccc(N(C(N)=O)c2c(F)cccc2F)nc1-c1ccc(F)cc1F + COc1ccc(-c2ccc3c(N4CCOCC4)nc(N4C[C@@H](C)O[C@@H](C)C4)nc3n2)cc1CO [KU0063794] (first compound 0.4 µM, partner dose 0.02 µM) | 98 |
| NC1(c2ccc(-c3nc4ccn5c(=O)[nH]nc5c4cc3-c3ccccc3)cc2)CCC1 + CCCCCCCCCCCC1=C(O)C(=O)C=C(O)C1=O [Embelin] (first compound 0.4 µM, partner dose 1.2 µM) | 97.5 |
| NC(=O)c1ccc(N(C(N)=O)c2c(F)cccc2F)nc1-c1ccc(F)cc1F + CC1(C)NC(=O)N(c2ccc([N+](=O)[O-])c(C(F)(F)F)c2)C1=O [nilutamide] (first compound 0.4 µM, partner dose 1 µM) | 85.5 |
| COc1ccc(C2=N[C@@H](c3ccc(Cl)cc3)[C@@H](c3ccc(Cl)cc3)N2C(=O)N2CCNC(=O)C2)c(OC(C)C)c1 [Nutlin-3] + Cn1cncc1[C@@](N)(c1ccc(Cl)cc1)c1ccc2c(c1)c(-c1cccc(Cl)c1)cc(=O)n2C [tipifarnib] (first compound 0.1 µM, partner dose 0.01 µM) | 81.8 |
| CN(c1ncccc1CNc1nc(Nc2ccc3c(c2)CC(=O)N3)ncc1C(F)(F)F)S(C)(=O)=O + Cc1cc([N+](=O)[O-])ccc1NS(=O)(=O)c1cc(Cl)ccc1Cl [FH535] (first compound 0.08 µM, partner dose 1 µM) | 98 |
| CC(=O)O[C@@]12CO[C@@H]1C[C@H](O)[C@@]1(C)C(=O)[C@H](O)C3=C(C)[C@@H](OC(=O)[C@H](O)[C@@H](NC(=O)OC(C)(C)C)c4ccccc4)C[C@@](O)([C@@H](OC(=O)c4ccccc4)[C@H]21)C3(C)C [Docetaxel] + N#Cc1c(O)c2c(-c3ccc(-c4ccccc4O)cc3)csc2[nH]c1=O [A769662] (first compound 0.0001 µM, partner dose 2 µM) | 116 |
| CC(=O)O[C@@]12CO[C@@H]1C[C@H](O)[C@@]1(C)C(=O)[C@H](O)C3=C(C)[C@@H](OC(=O)[C@H](O)[C@@H](NC(=O)OC(C)(C)C)c4ccccc4)C[C@@](O)([C@@H](OC(=O)c4ccccc4)[C@H]21)C3(C)C [Docetaxel] + COc1ccc2c(c1)CCC1C2CCC2(C)C(NCCCCCCN3C(=O)C=CC3=O)CCC12 [U73122] (first compound 0.0001 µM, partner dose 0.4 µM) | 184 |
| CN(c1ncccc1CNc1nc(Nc2ccc3c(c2)CC(=O)N3)ncc1C(F)(F)F)S(C)(=O)=O + COc1cc(N2CCC(N3CCN(C)CC3)CC2)ccc1Nc1ncc(Cl)c(Nc2ccccc2S(=O)(=O)C(C)C)n1 [NVP-TAE684] (first compound 0.08 µM, partner dose 0.08 µM) | 97.1 |
